Record: PubChem BioAssay AID1224830 (NIAID, 2016)
The deposit covers about 18,000 reagents; below is a random part of them. About 2,900 of them (16%) count as active. 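Calls are made per well; low scores hint the gene aids the LPS response, high scores that it dampens it.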 Repeated entries: four replicate wells of each siRNA pool.

Aim: 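Regulators of TLR4 signalling towards TNF-alpha in macrophage-like cells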 (primary screen)
System: human THP-1 monocytic leukaemia cells, TNF dual-luciferase reporter clone, PMA-differentiated to macrophage-like cells
Reagent: siRNA pool against human genes, 50 nM
Duration: LPS for 4 h, given about 3 days after siRNA transfection
Challenge: bacterial LPS (TLR4 ligand), 10 ng/ml
Measured: 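TNF firefly reporter luminescence divided by renilla, normalised to the plate median, then turned into a robust z-score for each replicate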
Direction: TNF reporter robust z-score: higher = stronger TNF reporter response to LPS
Active means: 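Each well counts as active if its z-score is over 2.8 or under -1.5; controls are left without a call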

| TNF reporter robust z-score | call | gene knocked down | PubChem SID |
| --- | --- | --- | --- |
| 1.6 | inactive | CIMIP1 (ciliary microtubule inner protein 1) | SID315461804 |
| 1.51 | inactive | CIMIP1 (ciliary microtubule inner protein 1) | SID315461804 |
| 1.83 | inactive | CIMIP1 (ciliary microtubule inner protein 1) | SID315461804 |
| 2.73 | inactive | CIMIP1 (ciliary microtubule inner protein 1) | SID315461804 |
| -0.37 | inactive | BDNF (brain derived neurotrophic factor) | SID315447540 |
| 0.22 | inactive | BDNF (brain derived neurotrophic factor) | SID315447540 |
| 0.72 | inactive | BDNF (brain derived neurotrophic factor) | SID315447540 |
| 1.92 | inactive | BDNF (brain derived neurotrophic factor) | SID315447540 |
| -0.37 | inactive | ADGRG5 (adhesion G protein-coupled receptor G5) | SID315463278 |
| 0.67 | inactive | ADGRG5 (adhesion G protein-coupled receptor G5) | SID315463278 |
| -0.29 | inactive | ADGRG5 (adhesion G protein-coupled receptor G5) | SID315463278 |
| -1.09 | inactive | ADGRG5 (adhesion G protein-coupled receptor G5) | SID315463278 |
| 0.9 | inactive | RAB20 (RAB20, member RAS oncogene family) | SID315457741 |
| -0.21 | inactive | RAB20 (RAB20, member RAS oncogene family) | SID315457741 |
| 0.01 | inactive | RAB20 (RAB20, member RAS oncogene family) | SID315457741 |
| 0.93 | inactive | KNDC1 (kinase non-catalytic C-lobe domain containing 1) | SID315460692 |
| 1.89 | inactive | KNDC1 (kinase non-catalytic C-lobe domain containing 1) | SID315460692 |
| -0.43 | inactive | KNDC1 (kinase non-catalytic C-lobe domain containing 1) | SID315460692 |
| 0.88 | inactive | KNDC1 (kinase non-catalytic C-lobe domain containing 1) | SID315460692 |
| 2.42 | inactive | NUP205 (nucleoporin 205) | SID315455036 |
| 0.59 | inactive | NUP205 (nucleoporin 205) | SID315455036 |
| 0.38 | inactive | NUP205 (nucleoporin 205) | SID315455036 |
| 0.27 | inactive | NUP205 (nucleoporin 205) | SID315455036 |
| 1.03 | inactive | SCAMP2 | SID315453791 |
| 2.87 | active | SCAMP2 | SID315453791 |
| 2.79 | inactive | SCAMP2 | SID315453791 |
| 1.58 | inactive | SCAMP2 | SID315453791 |
| -1.05 | inactive | GAPVD1 (GTPase activating protein and VPS9 domains 1) | SID315455681 |
| -0.68 | inactive | GAPVD1 (GTPase activating protein and VPS9 domains 1) | SID315455681 |
| -0.47 | inactive | GAPVD1 (GTPase activating protein and VPS9 domains 1) | SID315455681 |
| -0.45 | inactive | GAPVD1 (GTPase activating protein and VPS9 domains 1) | SID315455681 |
| -0.44 | inactive | STYX (serine/threonine/tyrosine interacting protein) | SID315451699 |
| 0.44 | inactive | STYX (serine/threonine/tyrosine interacting protein) | SID315451699 |
| -0.35 | inactive | STYX (serine/threonine/tyrosine interacting protein) | SID315451699 |
| -0.38 | inactive | STYX (serine/threonine/tyrosine interacting protein) | SID315451699 |
| -0.66 | inactive | FSD1L (fibronectin type III and SPRY domain containing 1 like) | SID315460098 |
| -0.7 | inactive | FSD1L (fibronectin type III and SPRY domain containing 1 like) | SID315460098 |
| -0.94 | inactive | FSD1L (fibronectin type III and SPRY domain containing 1 like) | SID315460098 |
| -0.43 | inactive | FSD1L (fibronectin type III and SPRY domain containing 1 like) | SID315460098 |
| -1.39 | inactive | PSMA4 (proteasome 20S subunit alpha 4) | SID315450886 |
| -1.34 | inactive | PSMA4 (proteasome 20S subunit alpha 4) | SID315450886 |
| -1.59 | active | PSMA4 (proteasome 20S subunit alpha 4) | SID315450886 |
| -1.81 | active | PSMA4 (proteasome 20S subunit alpha 4) | SID315450886 |
| -1.21 | inactive | HOXA9 (homeobox A9) | SID315449271 |
| -0.72 | inactive | HOXA9 (homeobox A9) | SID315449271 |
| -1.08 | inactive | HOXA9 (homeobox A9) | SID315449271 |
| -0.9 | inactive | HOXA9 (homeobox A9) | SID315449271 |
| 0.42 | inactive | DPY19L3 (dpy-19 like C-mannosyltransferase 3) | SID315462356 |
| -1.1 | inactive | DPY19L3 (dpy-19 like C-mannosyltransferase 3) | SID315462356 |
| -1.42 | inactive | DPY19L3 (dpy-19 like C-mannosyltransferase 3) | SID315462356 |
| -1.07 | inactive | DPY19L3 (dpy-19 like C-mannosyltransferase 3) | SID315462356 |
| -0.08 | inactive | CCDC80 (coiled-coil domain containing 80) | SID315462511 |
| -0.46 | inactive | CCDC80 (coiled-coil domain containing 80) | SID315462511 |
| -1.14 | inactive | CCDC80 (coiled-coil domain containing 80) | SID315462511 |
| 0.35 | inactive | CCDC80 (coiled-coil domain containing 80) | SID315462511 |
| -0.15 | inactive | S100G (S100 calcium binding protein G) | SID315447671 |
| -0.6 | inactive | S100G (S100 calcium binding protein G) | SID315447671 |
| 0.2 | inactive | S100G (S100 calcium binding protein G) | SID315447671 |
| -0.24 | inactive | S100G (S100 calcium binding protein G) | SID315447671 |
| -0.15 | inactive | GLRX (glutaredoxin) | SID315448927 |
| 0.07 | inactive | GLRX (glutaredoxin) | SID315448927 |
| -0.27 | inactive | GLRX (glutaredoxin) | SID315448927 |
| -0.44 | inactive | GLRX (glutaredoxin) | SID315448927 |
| 0.41 | inactive | TMEM132E-DT (TMEM132E divergent transcript) | SID315464747 |
| -0.23 | inactive | TMEM132E-DT (TMEM132E divergent transcript) | SID315464747 |
| 1.37 | inactive | TMEM132E-DT (TMEM132E divergent transcript) | SID315464747 |
| 0.98 | inactive | TMEM132E-DT (TMEM132E divergent transcript) | SID315464747 |
| -0.8 | inactive | TBX3 (T-box transcription factor 3) | SID315451783 |
| -0.33 | inactive | TBX3 (T-box transcription factor 3) | SID315451783 |
| -0.91 | inactive | TBX3 (T-box transcription factor 3) | SID315451783 |
| 0.63 | inactive | TBX3 (T-box transcription factor 3) | SID315451783 |
| 0.03 | inactive | KRT84 (keratin 84) | SID315449712 |
| 0.17 | inactive | KRT84 (keratin 84) | SID315449712 |
| -1.21 | inactive | KRT84 (keratin 84) | SID315449712 |
| -0.06 | inactive | KRT84 (keratin 84) | SID315449712 |

5 entries from above in another layout:
{"gene knocked down": "S100G (S100 calcium binding protein G)", "PubChem SID": "SID315447671", "TNF reporter robust z-score": -0.15, "call": "inactive"}
{"gene knocked down": "S100G (S100 calcium binding protein G)", "PubChem SID": "SID315447671", "TNF reporter robust z-score": -0.6, "call": "inactive"}
{"gene knocked down": "S100G (S100 calcium binding protein G)", "PubChem SID": "SID315447671", "TNF reporter robust z-score": 0.2, "call": "inactive"}
{"gene knocked down": "S100G (S100 calcium binding protein G)", "PubChem SID": "SID315447671", "TNF reporter robust z-score": -0.24, "call": "inactive"}
{"gene knocked down": "GLRX (glutaredoxin)", "PubChem SID": "SID315448927", "TNF reporter robust z-score": -0.15, "call": "inactive"}
